Assay: general procedure: Fmoc solid-phase peptide synthesis; HATU/DIPEA
Settings: whole synthesis

Which isolated yield does the source give for “D-Phe-cyclo[Cys-Tyr-D-Trp-Lys(IvDde)-Thr-Cys]-Thr-OH” here?
The isolated yield was 40%.
